Assay results reported in patent US20110086005A1, “MODULATING INTERSTITIAL PRESSURE AND ONCOLYTIC VIRAL DELIVERY AND DISTRIBUTION” ([…] INC., priority 2008, published 2011).
At least one compound was matched to its structure with a doubt left.

System: B16.F10 tumors
Assay: Subcutaneous B16.F10 tumors treated with intratumoral reovirus T3D and intraperitoneal rapamycin
Type: in vivo, C57B1/6 mice
Details: Kaplan-Meier; control treated mice 7 days; FIG. 2B

CO[C@H]1C[C@@H]2CC[C@@H](C)[C@@](O)(O2)C(=O)C(=O)N2CCCC[C@H]2C(=O)O[C@H]([C@H](C)C[C@@H]2CC[C@@H](O)[C@H](OC)C2)CC(=O)[C@H](C)/C=C(\C)[C@@H](O)[C@@H](OC)C(=O)[C@H](C)C[C@H](C)/C=C/C=C/C=C/1C [rapamycin]
median survival compared with control, in words: no improvement
